Laboratory results reported in the supplement of paper PMC6411743.
± gives the standard deviation of the averaged measurements. The list shows a part of the results, in another mix than the full data.

Experiments:
Experiment in all cases: NP40-soluble protein abundance relative to vehicle (solubility fold change) (ratio); higher = more soluble protein in presence of AMP-PNP
[1] = biological target: T1, PPM1F (UniProt P49593)
T1 sequence (whole entry): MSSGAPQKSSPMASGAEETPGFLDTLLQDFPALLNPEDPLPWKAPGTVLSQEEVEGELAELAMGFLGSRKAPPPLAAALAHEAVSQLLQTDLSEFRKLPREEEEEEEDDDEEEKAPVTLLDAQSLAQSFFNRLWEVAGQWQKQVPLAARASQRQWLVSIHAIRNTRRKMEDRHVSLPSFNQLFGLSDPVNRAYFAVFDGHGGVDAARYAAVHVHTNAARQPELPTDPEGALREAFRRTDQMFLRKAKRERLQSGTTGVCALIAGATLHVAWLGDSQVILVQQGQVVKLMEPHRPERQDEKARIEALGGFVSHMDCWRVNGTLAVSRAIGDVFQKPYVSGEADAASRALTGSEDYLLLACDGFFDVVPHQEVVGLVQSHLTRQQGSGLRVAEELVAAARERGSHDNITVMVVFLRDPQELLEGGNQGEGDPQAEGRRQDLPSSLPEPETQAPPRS
Procedure, shortened: (§1)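 Crude Jurkat lysate, prepared by Dounce homogenisation, was exposed to eight concentrations from 0.1 to 10 mM for 10 min at room temperature and then 3 min at 37 °C. Solubilisation used 0.8% NP40 with benzonase for 60 min at 4 °C, followed by ultracentrifugation and TMT labelling of the supernatant for LC-MS/MS. After vsn normalisation of intensities, each value is the fold change against the detergent-processed vehicle within each replicate, across three independent experiments.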

[2] = biological target: T2, RAB9A (UniProt P51151)
T2 sequence (whole entry): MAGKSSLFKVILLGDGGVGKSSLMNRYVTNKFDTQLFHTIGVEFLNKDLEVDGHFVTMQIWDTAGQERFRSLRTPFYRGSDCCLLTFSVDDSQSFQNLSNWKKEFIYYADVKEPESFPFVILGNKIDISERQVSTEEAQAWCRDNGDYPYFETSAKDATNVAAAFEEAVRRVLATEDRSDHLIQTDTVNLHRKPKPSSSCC
Procedure, shortened: as §1

[3] = biological target: T3, SEC24C (UniProt P53992)
T3 sequence (whole entry): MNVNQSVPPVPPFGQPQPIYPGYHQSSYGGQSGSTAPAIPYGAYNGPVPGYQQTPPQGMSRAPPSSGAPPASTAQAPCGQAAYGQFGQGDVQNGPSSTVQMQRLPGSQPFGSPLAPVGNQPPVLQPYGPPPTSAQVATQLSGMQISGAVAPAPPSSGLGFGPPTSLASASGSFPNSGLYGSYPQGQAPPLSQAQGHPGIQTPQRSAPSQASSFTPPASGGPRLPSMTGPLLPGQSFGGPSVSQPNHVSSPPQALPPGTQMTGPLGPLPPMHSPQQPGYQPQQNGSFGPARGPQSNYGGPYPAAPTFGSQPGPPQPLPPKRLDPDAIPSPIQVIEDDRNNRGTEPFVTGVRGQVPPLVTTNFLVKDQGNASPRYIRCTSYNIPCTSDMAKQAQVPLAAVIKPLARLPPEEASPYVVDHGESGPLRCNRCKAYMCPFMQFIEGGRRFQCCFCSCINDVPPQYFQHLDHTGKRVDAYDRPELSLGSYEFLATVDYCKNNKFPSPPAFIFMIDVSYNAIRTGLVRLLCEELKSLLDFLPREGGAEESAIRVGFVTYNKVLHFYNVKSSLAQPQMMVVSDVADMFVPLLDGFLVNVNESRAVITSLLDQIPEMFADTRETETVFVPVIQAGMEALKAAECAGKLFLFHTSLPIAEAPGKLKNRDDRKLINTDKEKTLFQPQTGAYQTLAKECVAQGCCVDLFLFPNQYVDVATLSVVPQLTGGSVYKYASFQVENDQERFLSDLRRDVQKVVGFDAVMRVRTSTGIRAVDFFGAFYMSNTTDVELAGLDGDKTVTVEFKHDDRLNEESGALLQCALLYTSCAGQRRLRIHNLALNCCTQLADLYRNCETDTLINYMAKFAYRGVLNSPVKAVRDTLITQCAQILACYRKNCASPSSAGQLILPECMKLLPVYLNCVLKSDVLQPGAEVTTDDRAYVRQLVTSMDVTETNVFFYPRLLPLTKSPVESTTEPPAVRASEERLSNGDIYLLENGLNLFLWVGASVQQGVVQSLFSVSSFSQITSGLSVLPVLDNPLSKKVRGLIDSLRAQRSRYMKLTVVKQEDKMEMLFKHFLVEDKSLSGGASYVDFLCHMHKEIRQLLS
Procedure, shortened: as §1

[4] = biological target: T4, SLC12A2 (UniProt P55011)
T4 sequence (whole entry): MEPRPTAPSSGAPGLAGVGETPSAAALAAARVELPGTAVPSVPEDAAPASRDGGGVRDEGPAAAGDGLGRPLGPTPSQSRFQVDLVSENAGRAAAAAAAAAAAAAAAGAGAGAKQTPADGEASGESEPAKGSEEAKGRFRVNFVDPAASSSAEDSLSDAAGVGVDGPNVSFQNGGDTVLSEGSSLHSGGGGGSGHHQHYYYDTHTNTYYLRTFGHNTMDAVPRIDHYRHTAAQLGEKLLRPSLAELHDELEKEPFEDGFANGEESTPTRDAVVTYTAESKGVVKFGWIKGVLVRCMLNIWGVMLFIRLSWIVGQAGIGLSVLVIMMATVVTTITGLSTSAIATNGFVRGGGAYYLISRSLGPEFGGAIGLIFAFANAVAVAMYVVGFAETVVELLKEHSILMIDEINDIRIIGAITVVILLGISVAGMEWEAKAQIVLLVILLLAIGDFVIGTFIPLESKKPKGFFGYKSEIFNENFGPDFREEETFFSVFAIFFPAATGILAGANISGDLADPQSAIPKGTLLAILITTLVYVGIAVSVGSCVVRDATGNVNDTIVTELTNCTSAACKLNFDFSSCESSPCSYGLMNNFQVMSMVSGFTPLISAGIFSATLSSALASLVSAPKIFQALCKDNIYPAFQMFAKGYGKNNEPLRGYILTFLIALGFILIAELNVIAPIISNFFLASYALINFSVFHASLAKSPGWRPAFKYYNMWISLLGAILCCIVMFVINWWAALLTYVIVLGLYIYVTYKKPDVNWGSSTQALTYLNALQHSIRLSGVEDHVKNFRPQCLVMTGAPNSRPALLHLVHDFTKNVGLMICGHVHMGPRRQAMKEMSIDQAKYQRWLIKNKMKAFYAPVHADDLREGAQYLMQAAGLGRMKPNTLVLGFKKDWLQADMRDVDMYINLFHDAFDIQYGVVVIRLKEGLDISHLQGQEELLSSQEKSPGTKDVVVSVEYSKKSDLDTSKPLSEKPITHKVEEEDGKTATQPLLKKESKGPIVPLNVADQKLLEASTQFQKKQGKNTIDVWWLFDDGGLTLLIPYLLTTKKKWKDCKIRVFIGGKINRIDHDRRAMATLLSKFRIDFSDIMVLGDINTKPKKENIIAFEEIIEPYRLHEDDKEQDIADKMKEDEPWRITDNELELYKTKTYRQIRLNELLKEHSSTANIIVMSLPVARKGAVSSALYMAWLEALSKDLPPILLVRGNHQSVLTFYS
Procedure, shortened: as §1

[5] = biological target: T5, TMED10 (UniProt P49755)
T5 sequence (whole entry): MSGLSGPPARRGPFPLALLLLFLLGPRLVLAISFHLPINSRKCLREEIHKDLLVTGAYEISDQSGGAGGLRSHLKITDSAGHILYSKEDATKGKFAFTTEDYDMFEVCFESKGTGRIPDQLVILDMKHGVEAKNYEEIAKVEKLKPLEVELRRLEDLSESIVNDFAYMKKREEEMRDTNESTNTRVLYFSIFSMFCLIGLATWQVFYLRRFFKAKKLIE
Procedure, shortened: as §1

[6] = biological target: T6, UQCRFS1 (UniProt P47985)
T6 sequence (whole entry): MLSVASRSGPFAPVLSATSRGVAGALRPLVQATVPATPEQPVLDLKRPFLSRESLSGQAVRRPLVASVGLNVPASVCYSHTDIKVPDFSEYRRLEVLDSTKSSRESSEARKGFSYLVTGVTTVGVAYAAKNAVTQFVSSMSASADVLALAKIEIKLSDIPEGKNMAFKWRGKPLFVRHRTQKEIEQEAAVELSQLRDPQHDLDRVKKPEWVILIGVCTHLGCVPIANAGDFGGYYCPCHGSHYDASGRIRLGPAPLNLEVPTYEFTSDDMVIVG
Procedure, shortened: as §1

With Nc1ncnc2c1ncn2[C@@H]1O[C@H](COP(=O)(O)OP(=O)(O)NP(=O)(O)O)[C@@H](O)[C@H]1O [adenylyl imidodiphosphate] as the compound, how does the NP40-soluble protein abundance ([1]; concentration: 2mM) read?
Its NP40-soluble protein abundance is 1.019 ± 0.0062.

And the NP40-soluble protein abundance ([1]; concentration: 4mM)?
Its NP40-soluble protein abundance is 1.03 ± 0.011.

What about the NP40-soluble protein abundance ([1]; concentration: 6mM) of the same compound?
The NP40-soluble protein abundance was 1.014 ± 0.0081.

What about the NP40-soluble protein abundance ([1]; concentration: 8mM) of the same compound?
Its NP40-soluble protein abundance is 1.02 ± 0.013.

What about the NP40-soluble protein abundance ([1]; concentration: 10mM) of the same compound?
The NP40-soluble protein abundance was 1.04 ± 0.018.

What about the NP40-soluble protein abundance ([2]; concentration: 1mM) of the same compound?
The NP40-soluble protein abundance was 0.989 ± 0.035.

And the NP40-soluble protein abundance ([2]; concentration: 2mM)?
The NP40-soluble protein abundance was 0.957 ± 0.045.

And the NP40-soluble protein abundance ([2]; concentration: 4mM)?
The NP40-soluble protein abundance was 0.979 ± 0.017.

And the NP40-soluble protein abundance ([2]; concentration: 6mM)?
The NP40-soluble protein abundance was 1 ± 0.045.

And the NP40-soluble protein abundance ([2]; concentration: 8mM)?
Its NP40-soluble protein abundance is 0.96 ± 0.032.

And the NP40-soluble protein abundance ([2]; concentration: 10mM)?
Its NP40-soluble protein abundance is 0.9608 ± 0.0061.

What about the NP40-soluble protein abundance ([3]; concentration: 1mM) of the same compound?
Its NP40-soluble protein abundance is 0.973 ± 0.025.

And the NP40-soluble protein abundance ([3]; concentration: 2mM)?
Its NP40-soluble protein abundance is 0.921 ± 0.05.

What about the NP40-soluble protein abundance ([3]; concentration: 4mM) of the same compound?
Its NP40-soluble protein abundance is 0.9789 ± 0.0097.

And the NP40-soluble protein abundance ([3]; concentration: 6mM)?
The NP40-soluble protein abundance was 0.985 ± 0.05.

What about the NP40-soluble protein abundance ([3]; concentration: 8mM) of the same compound?
Its NP40-soluble protein abundance is 0.9994 ± 0.0051.

What about the NP40-soluble protein abundance ([3]; concentration: 10mM) of the same compound?
The NP40-soluble protein abundance was 0.9523 ± 0.0086.

And the NP40-soluble protein abundance ([4]; concentration: 1mM)?
Its NP40-soluble protein abundance is 1.01 ± 0.017.

And the NP40-soluble protein abundance ([4]; concentration: 2mM)?
Its NP40-soluble protein abundance is 1.02 ± 0.012.

What about the NP40-soluble protein abundance ([4]; concentration: 4mM) of the same compound?
The NP40-soluble protein abundance was 1.02 ± 0.035.

And the NP40-soluble protein abundance ([4]; concentration: 6mM)?
The NP40-soluble protein abundance was 0.974 ± 0.037.

And the NP40-soluble protein abundance ([4]; concentration: 8mM)?
The NP40-soluble protein abundance was 0.959 ± 0.042.

And the NP40-soluble protein abundance ([4]; concentration: 10mM)?
The NP40-soluble protein abundance was 0.972 ± 0.05.

And the NP40-soluble protein abundance ([5]; concentration: 1mM)?
Its NP40-soluble protein abundance is 1.03 ± 0.048.

And the NP40-soluble protein abundance ([5]; concentration: 2mM)?
The NP40-soluble protein abundance was 0.992 ± 0.06.

What about the NP40-soluble protein abundance ([5]; concentration: 4mM) of the same compound?
The NP40-soluble protein abundance was 0.985 ± 0.028.

And the NP40-soluble protein abundance ([5]; concentration: 6mM)?
The NP40-soluble protein abundance was 0.985 ± 0.041.

What about the NP40-soluble protein abundance ([5]; concentration: 8mM) of the same compound?
Its NP40-soluble protein abundance is 0.974 ± 0.042.

And the NP40-soluble protein abundance ([5]; concentration: 10mM)?
Its NP40-soluble protein abundance is 0.997 ± 0.097.

And the NP40-soluble protein abundance ([6]; concentration: 1mM)?
Its NP40-soluble protein abundance is 1.02 ± 0.054.

And the NP40-soluble protein abundance ([6]; concentration: 2mM)?
Its NP40-soluble protein abundance is 0.954 ± 0.026.

What about the NP40-soluble protein abundance ([6]; concentration: 4mM) of the same compound?
Its NP40-soluble protein abundance is 0.974 ± 0.057.
